Results are given in words; binding and its absence hold for the method and conditions named. Binding seen in cells or lysates may run through a third protein. Some entries that bind do so weakly or less than the wild type.
Target: Cyclin D1 (CCND1) (human (endogenous in IMR90)) (UniProt P24385)
Test: co-IP; immunoprecipitation from senescent IMR90 lysate (EBC100: 50 mM Tris-HCl pH 8.0, 100 mM NaCl, 0.5% NP-40) with antibody on Dynabeads Protein G, overnight at 4 °C, five washes with NETN buffer, Western blot

Amino acid sequences for entries named in this document (tags omitted).
UniProt P24385: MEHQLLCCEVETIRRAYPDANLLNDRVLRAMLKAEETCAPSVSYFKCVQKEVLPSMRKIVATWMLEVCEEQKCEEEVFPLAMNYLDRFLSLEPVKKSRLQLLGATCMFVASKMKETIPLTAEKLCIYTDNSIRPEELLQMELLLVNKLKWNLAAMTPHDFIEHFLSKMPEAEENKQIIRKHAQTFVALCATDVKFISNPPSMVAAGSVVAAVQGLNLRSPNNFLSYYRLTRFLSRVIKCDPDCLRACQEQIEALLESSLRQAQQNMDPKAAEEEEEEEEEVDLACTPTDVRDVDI
UniProt P38936: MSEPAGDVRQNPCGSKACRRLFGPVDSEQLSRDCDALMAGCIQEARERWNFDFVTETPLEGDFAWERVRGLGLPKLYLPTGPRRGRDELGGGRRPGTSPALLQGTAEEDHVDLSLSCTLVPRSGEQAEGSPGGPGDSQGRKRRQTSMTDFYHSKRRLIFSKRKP

binding: binds
Substance: CDKN1A (from UniProt P38936 1-164)
